Experimental data as given in PMC5793161.
Results are given in words; binding and its absence hold for the method and conditions named. Some entries that bind do so weakly or less than the wild type.

T1: Arabidopsis thaliana Rad4/XPC homologue (AtRAD4) (Arabidopsis thaliana) (UniProt Q8W489)
T1 sequence: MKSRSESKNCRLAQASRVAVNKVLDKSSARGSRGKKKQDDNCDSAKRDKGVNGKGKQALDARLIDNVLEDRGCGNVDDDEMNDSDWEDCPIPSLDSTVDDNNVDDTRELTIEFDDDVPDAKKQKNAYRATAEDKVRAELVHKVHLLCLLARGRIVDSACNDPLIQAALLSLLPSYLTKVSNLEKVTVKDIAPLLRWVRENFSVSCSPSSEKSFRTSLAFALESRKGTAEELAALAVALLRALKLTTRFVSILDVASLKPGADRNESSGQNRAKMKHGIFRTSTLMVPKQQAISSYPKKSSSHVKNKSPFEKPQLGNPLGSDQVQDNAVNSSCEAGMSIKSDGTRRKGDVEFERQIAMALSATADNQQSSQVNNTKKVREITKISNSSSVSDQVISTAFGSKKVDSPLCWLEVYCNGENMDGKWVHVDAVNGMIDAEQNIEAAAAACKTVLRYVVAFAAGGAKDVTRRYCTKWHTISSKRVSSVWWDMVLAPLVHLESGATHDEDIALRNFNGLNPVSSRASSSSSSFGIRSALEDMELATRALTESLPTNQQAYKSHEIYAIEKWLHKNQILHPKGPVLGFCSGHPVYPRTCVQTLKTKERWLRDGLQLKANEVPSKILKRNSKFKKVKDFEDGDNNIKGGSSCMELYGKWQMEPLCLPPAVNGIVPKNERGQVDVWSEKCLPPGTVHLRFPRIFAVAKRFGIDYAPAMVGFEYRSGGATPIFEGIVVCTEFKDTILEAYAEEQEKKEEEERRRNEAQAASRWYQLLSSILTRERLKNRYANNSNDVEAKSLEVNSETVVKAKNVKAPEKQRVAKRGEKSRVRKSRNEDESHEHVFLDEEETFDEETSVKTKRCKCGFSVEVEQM

T2: Arabidopsis RAD23B (Arabidopsis thaliana) (UniProt Q84L33)
T2 sequence: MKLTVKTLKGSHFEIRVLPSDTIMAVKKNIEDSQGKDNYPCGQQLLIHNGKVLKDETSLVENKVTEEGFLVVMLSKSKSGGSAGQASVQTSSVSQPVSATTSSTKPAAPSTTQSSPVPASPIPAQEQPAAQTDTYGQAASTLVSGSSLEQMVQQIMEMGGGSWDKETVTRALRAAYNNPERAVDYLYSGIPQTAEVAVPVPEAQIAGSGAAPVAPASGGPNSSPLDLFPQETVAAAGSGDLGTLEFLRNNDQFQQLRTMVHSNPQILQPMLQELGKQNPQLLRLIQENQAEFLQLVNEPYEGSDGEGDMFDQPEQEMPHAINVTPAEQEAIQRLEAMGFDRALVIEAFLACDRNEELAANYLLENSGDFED

T3: RAD4N pGBKT7 (1-371/866 aa) (Arabidopsis thaliana) (UniProt Q8W489)
T3 sequence: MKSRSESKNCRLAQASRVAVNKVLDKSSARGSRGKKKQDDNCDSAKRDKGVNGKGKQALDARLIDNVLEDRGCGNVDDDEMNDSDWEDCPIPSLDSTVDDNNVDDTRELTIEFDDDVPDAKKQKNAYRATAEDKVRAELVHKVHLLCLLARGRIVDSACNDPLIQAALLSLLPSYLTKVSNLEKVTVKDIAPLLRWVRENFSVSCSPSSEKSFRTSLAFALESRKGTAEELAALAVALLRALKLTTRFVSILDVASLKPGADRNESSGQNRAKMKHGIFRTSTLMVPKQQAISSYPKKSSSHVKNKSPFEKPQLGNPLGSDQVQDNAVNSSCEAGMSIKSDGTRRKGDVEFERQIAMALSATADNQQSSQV

B1: Arabidopsis RAD23B (protein, UniProt Q84L33 1-371)
chain: MKLTVKTLKGSHFEIRVLPSDTIMAVKKNIEDSQGKDNYPCGQQLLIHNGKVLKDETSLVENKVTEEGFLVVMLSKSKSGGSAGQASVQTSSVSQPVSATTSSTKPAAPSTTQSSPVPASPIPAQEQPAAQTDTYGQAASTLVSGSSLEQMVQQIMEMGGGSWDKETVTRALRAAYNNPERAVDYLYSGIPQTAEVAVPVPEAQIAGSGAAPVAPASGGPNSSPLDLFPQETVAAAGSGDLGTLEFLRNNDQFQQLRTMVHSNPQILQPMLQELGKQNPQLLRLIQENQAEFLQLVNEPYEGSDGEGDMFDQPEQEMPHAINVTPAEQEAIQRLEAMGFDRALVIEAFLACDRNEELAANYLLENSGDFED
B2: RAD4N pGADT7 (1-368/866 aa) (domain or fragment, UniProt Q8W489 1-368)
chain: MKSRSESKNCRLAQASRVAVNKVLDKSSARGSRGKKKQDDNCDSAKRDKGVNGKGKQALDARLIDNVLEDRGCGNVDDDEMNDSDWEDCPIPSLDSTVDDNNVDDTRELTIEFDDDVPDAKKQKNAYRATAEDKVRAELVHKVHLLCLLARGRIVDSACNDPLIQAALLSLLPSYLTKVSNLEKVTVKDIAPLLRWVRENFSVSCSPSSEKSFRTSLAFALESRKGTAEELAALAVALLRALKLTTRFVSILDVASLKPGADRNESSGQNRAKMKHGIFRTSTLMVPKQQAISSYPKKSSSHVKNKSPFEKPQLGNPLGSDQVQDNAVNSSCEAGMSIKSDGTRRKGDVEFERQIAMALSATADNQQS
B3: HEMERA (HMR) (protein, UniProt F4IHY7 1-527)
chain: MASISTTTWLYRGQVCTDSGKSSNCIVQRRVKCGFPLKTLHAGITSRDRSLRHCIKCKKEDGDGDVSEGSKKSEEGFEYVTVERHPYHSYMDSTSGKLEPASGARASIPGEDYWPEGTSSRVRAARAPQPAGESSSFPSYGKNPGSRRKKNRKATEENVTVETNDEVSDSEDSSEEEENDSSDGFVTYKNEFEREEEETGFELDKKLGRPHPFIDPTKKKQIEKTLTSDESWWNWRKPEKEQWSRWQRRRPDVETVFLKAMAETGQVKLYGEEPTLTETSLYRARRHLFKEERLQAERERLAKEGPMAFYSEWVKAWKRDTSREAVQKHFEETGEDENTQLIEMFSHQTDREYRIMMGTDIRIKRDPLAMRMREDQIKQIWGGDPVYPTINYIQDPNAVMDFRGPDFHEPTPNMLSYLKENGKVISREMHEALLTKEKTEQLEVPDMDDAMAQAVDIGENDDDEDDADVEKDDEKVPRNWSVLKETPELRTAKPKPKKEGRMSLDEAVDDAENLTDFLMDFEEETDP
B4: Arabidopsis DDB2 (protein, UniProt Q6NQ88 1-557)
chain: MSSTRSRRKRDPEIVIARDTDSELSSSEEEEEEEDNYPFSESEEEDEAVKNGGKIELEKNKAKGKAPITVKLIKKVCKVCKQPGHEAGFKGATYIDCPMKPCFLCKMPGHTTMSCPHRVVTDHGILPTSHRNTKNPIDFVFKRQLQPRIPPIKPKYVIPDQVHCAVIRYHSRRVTCLEFHPTKNNILLSGDKKGQIGVWDFGKVYEKNVYGNIHSVQVNNMRFSPTNDDMVYSASSDGTIGYTDLETGTSSTLLNLNPDGWQGANSWKMLYGMDINSEKGVVLAADNFGFLHMIDHRTNNSTGEPILIHKQGSKVCGLDCNPVQPELLLSCGNDHFARIWDMRKLQPKASLHDLAHKRVVNSAYFSPSSGTKILTTCQDNRIRIWDSIFGNLDLPSREIVHSNDFNRHLTPFKAEWDPKDTSESLIVIGRYISENYNGTALHPIDFIDASNGQLVAEVMDPNITTITPVNKLHPRDDVLASGSSRSLFIWRPQDNTEMVEEKKDKKIIICYGDSKKKGKKQKRGSDDEDDEDDIFSSKGKNIKVNKYQAKTTKKTKT
B5: Arabidopsis thaliana Rad4/XPC homologue (AtRAD4) (protein, UniProt Q8W489 1-865)
chain: MKSRSESKNCRLAQASRVAVNKVLDKSSARGSRGKKKQDDNCDSAKRDKGVNGKGKQALDARLIDNVLEDRGCGNVDDDEMNDSDWEDCPIPSLDSTVDDNNVDDTRELTIEFDDDVPDAKKQKNAYRATAEDKVRAELVHKVHLLCLLARGRIVDSACNDPLIQAALLSLLPSYLTKVSNLEKVTVKDIAPLLRWVRENFSVSCSPSSEKSFRTSLAFALESRKGTAEELAALAVALLRALKLTTRFVSILDVASLKPGADRNESSGQNRAKMKHGIFRTSTLMVPKQQAISSYPKKSSSHVKNKSPFEKPQLGNPLGSDQVQDNAVNSSCEAGMSIKSDGTRRKGDVEFERQIAMALSATADNQQSSQVNNTKKVREITKISNSSSVSDQVISTAFGSKKVDSPLCWLEVYCNGENMDGKWVHVDAVNGMIDAEQNIEAAAAACKTVLRYVVAFAAGGAKDVTRRYCTKWHTISSKRVSSVWWDMVLAPLVHLESGATHDEDIALRNFNGLNPVSSRASSSSSSFGIRSALEDMELATRALTESLPTNQQAYKSHEIYAIEKWLHKNQILHPKGPVLGFCSGHPVYPRTCVQTLKTKERWLRDGLQLKANEVPSKILKRNSKFKKVKDFEDGDNNIKGGSSCMELYGKWQMEPLCLPPAVNGIVPKNERGQVDVWSEKCLPPGTVHLRFPRIFAVAKRFGIDYAPAMVGFEYRSGGATPIFEGIVVCTEFKDTILEAYAEEQEKKEEEERRRNEAQAASRWYQLLSSILTRERLKNRYANNSNDVEAKSLEVNSETVVKAKNVKAPEKQRVAKRGEKSRVRKSRNEDESHEHVFLDEEETFDEETSVKTKRCKCGFSVEVEQM

Assays:
Experiment in all cases: two-hybrid; Matchmaker gold yeast two-hybrid system (Clontech), pGADT7 and pGBKT7 fusions; diploid yeast in five-fold dilutions on quadruple drop-out (-ade, -his, -leu, -trp) selection medium against double drop-out control; ADE2 and HIS3 reporters
[1] = molecular target: T1, Arabidopsis thaliana Rad4/XPC homologue (AtRAD4) (Arabidopsis thaliana)
[2] = molecular target: T2, Arabidopsis RAD23B (Arabidopsis thaliana)
[3] = molecular target: T3, RAD4N pGBKT7 (1-371/866 aa) (Arabidopsis thaliana)

Row | binding [1] | binding [2] | binding [3] | Binder
1 | binds |  |  | B1
2 |  | binds |  | B2
3 | binds |  | binds | B3
4 | no binding |  |  | B4
5 | no binding |  |  | B5
